The list shows a part of the results. Most entries show no effect beyond the scatter of the controls.

The chains behind the UniProt entries cited, without tags or fusion partners. Where a name states a change or a piece, a line headed by the entry shows the natural chain unless it says otherwise.
UniProt P41208: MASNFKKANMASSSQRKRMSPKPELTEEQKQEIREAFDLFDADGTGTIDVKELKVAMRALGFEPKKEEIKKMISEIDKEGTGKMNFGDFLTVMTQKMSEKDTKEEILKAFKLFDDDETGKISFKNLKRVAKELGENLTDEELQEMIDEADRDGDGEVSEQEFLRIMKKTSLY
UniProt P28290: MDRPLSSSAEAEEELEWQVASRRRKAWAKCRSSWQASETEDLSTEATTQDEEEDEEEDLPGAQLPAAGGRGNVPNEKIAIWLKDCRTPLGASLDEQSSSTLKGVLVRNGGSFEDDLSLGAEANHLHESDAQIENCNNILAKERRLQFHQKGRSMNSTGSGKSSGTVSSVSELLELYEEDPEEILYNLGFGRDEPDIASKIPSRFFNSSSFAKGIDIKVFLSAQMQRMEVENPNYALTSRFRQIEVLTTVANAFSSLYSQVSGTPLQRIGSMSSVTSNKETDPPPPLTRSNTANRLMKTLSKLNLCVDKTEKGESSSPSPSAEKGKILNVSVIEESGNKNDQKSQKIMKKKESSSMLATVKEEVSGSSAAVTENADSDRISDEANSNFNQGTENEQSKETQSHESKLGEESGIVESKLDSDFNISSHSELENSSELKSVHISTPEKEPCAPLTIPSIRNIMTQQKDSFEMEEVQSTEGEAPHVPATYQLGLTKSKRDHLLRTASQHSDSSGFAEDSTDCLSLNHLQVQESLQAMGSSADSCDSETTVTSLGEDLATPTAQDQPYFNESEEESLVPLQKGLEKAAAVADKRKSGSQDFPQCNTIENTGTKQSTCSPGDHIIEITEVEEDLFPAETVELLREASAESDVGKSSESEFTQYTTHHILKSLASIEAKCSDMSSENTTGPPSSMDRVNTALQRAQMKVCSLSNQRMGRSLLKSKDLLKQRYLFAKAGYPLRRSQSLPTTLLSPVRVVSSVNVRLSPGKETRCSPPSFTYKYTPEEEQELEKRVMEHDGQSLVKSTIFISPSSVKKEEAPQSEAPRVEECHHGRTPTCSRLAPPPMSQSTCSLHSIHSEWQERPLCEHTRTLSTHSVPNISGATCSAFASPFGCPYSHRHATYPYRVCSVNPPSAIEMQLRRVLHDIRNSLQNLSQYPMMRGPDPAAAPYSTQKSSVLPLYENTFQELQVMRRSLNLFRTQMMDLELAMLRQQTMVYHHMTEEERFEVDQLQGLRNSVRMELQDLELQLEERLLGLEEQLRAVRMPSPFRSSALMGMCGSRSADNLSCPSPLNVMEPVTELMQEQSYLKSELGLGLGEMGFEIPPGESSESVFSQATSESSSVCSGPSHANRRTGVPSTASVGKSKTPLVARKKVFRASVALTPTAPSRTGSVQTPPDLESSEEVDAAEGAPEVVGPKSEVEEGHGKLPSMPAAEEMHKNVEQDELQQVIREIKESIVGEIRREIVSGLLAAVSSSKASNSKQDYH
UniProt P33992: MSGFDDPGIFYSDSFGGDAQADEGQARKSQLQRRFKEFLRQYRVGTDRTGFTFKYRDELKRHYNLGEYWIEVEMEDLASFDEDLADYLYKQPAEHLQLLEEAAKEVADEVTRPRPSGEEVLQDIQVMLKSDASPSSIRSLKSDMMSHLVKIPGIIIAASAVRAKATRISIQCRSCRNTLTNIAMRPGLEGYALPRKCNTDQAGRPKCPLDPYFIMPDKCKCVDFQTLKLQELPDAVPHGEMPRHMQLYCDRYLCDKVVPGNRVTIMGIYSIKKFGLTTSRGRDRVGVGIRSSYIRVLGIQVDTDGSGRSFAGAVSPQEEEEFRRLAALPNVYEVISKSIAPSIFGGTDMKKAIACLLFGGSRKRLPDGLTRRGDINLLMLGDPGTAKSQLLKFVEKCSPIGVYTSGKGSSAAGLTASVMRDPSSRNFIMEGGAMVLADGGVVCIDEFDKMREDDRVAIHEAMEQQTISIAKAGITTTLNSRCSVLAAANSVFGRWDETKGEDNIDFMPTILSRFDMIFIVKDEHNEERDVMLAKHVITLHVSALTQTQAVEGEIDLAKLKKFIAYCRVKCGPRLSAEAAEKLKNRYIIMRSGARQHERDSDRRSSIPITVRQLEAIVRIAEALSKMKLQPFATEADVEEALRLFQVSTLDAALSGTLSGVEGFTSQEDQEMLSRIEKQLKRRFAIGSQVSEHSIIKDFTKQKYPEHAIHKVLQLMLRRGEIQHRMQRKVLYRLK
UniProt P43268: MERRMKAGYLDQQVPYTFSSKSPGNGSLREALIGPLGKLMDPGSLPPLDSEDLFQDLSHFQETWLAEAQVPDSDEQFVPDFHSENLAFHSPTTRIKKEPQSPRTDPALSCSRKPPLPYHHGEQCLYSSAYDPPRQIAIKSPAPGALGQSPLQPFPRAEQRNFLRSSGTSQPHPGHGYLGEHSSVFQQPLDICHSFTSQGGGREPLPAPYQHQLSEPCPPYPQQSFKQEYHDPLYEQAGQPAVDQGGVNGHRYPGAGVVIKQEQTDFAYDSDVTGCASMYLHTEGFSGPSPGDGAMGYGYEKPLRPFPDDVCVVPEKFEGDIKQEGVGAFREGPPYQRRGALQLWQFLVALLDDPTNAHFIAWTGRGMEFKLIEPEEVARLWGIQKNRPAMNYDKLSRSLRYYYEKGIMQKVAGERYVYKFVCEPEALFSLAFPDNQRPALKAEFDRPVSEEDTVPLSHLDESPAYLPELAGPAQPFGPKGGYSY
UniProt P41162: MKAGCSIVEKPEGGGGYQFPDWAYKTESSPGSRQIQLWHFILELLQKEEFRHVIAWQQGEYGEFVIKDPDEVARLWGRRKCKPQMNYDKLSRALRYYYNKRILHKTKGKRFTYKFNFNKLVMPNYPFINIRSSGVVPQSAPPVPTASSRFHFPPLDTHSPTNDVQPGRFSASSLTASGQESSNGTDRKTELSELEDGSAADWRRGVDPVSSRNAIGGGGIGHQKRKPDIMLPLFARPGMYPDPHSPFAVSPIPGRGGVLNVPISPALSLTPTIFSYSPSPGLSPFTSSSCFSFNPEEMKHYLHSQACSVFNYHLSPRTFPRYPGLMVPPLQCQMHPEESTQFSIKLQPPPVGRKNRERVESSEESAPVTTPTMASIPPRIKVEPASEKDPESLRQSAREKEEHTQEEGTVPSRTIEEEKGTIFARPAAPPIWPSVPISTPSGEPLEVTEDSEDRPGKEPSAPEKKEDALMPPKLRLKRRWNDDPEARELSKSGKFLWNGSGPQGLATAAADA
UniProt P43355: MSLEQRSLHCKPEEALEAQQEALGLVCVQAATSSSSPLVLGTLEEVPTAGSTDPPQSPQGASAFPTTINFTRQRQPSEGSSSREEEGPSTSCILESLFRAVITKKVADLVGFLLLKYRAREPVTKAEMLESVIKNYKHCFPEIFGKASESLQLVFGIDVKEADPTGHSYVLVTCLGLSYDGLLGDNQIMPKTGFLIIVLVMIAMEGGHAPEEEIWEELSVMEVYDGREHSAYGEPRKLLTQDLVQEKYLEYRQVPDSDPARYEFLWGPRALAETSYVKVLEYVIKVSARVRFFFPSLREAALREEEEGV
UniProt P35030: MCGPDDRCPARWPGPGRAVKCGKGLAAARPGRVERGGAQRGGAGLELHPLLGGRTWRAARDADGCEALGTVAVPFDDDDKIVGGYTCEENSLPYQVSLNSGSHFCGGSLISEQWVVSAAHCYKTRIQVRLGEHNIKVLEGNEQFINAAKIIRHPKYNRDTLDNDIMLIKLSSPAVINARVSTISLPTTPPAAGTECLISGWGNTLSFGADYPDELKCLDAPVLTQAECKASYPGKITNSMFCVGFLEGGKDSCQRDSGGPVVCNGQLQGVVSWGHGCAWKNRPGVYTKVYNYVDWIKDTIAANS
UniProt P41134: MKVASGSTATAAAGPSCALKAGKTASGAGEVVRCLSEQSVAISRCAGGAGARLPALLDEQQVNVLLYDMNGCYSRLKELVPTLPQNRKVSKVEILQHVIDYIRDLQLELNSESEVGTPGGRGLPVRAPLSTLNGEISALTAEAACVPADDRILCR
UniProt P40425: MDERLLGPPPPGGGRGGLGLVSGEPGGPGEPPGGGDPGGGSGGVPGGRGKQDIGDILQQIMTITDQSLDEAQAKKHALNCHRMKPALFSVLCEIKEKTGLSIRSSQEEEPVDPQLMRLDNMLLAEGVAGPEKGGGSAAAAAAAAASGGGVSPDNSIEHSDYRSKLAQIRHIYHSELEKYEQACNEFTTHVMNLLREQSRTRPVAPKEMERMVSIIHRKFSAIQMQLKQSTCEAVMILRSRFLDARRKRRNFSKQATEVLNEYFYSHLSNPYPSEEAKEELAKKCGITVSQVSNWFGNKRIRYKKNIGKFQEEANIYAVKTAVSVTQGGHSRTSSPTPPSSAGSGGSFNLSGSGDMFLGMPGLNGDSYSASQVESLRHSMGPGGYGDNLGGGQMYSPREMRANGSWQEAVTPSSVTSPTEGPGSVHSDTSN
UniProt P39060, whole entry: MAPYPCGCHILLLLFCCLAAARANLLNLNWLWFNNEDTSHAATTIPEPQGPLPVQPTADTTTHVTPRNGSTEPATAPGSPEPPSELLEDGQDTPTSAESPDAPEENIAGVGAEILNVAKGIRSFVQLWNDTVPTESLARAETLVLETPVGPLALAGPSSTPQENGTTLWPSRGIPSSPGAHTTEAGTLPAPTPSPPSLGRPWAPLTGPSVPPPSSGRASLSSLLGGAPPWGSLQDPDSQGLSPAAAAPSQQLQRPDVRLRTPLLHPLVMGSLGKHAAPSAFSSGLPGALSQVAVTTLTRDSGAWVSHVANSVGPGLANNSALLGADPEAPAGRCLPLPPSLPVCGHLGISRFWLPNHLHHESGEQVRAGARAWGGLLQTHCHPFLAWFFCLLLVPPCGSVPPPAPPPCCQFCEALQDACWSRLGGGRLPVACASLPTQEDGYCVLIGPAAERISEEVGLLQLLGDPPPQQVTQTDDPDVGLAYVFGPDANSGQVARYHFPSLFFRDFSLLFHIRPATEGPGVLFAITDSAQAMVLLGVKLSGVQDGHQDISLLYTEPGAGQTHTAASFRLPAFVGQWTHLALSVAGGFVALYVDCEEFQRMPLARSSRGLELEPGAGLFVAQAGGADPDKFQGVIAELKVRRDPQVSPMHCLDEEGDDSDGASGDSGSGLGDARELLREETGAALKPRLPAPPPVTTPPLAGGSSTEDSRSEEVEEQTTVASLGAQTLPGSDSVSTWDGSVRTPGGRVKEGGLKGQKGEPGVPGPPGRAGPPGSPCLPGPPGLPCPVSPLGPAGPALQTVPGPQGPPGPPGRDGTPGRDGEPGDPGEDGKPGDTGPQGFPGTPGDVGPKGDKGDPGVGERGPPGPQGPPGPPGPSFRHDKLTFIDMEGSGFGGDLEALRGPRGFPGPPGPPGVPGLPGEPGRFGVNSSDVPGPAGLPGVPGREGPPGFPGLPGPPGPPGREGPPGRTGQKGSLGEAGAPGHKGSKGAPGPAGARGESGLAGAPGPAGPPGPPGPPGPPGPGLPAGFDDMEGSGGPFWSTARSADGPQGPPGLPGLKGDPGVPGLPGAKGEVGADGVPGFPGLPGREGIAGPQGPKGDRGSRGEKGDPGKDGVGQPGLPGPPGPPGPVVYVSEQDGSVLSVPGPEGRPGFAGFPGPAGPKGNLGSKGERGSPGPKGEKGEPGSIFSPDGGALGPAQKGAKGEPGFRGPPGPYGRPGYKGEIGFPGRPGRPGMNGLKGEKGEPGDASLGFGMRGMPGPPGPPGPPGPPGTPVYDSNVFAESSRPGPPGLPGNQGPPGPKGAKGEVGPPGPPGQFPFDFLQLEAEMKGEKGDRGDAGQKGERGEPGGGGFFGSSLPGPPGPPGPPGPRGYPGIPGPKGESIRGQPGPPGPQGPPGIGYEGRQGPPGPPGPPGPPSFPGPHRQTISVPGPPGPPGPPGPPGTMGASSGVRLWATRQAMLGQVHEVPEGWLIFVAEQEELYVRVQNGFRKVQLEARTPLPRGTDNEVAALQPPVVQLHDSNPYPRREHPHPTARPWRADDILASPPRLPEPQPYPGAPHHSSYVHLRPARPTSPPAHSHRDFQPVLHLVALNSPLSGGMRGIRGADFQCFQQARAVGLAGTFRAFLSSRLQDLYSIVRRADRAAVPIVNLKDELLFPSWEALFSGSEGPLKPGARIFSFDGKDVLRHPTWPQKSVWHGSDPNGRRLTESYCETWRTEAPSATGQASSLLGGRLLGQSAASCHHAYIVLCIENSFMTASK
UniProt P43487, whole entry: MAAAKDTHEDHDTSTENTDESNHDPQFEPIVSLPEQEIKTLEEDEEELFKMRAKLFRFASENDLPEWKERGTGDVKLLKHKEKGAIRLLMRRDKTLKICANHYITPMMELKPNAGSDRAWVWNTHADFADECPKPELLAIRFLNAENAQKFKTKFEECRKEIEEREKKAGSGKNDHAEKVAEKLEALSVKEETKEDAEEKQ

Compound in this assay: CN[C@@H]1C[C@H]2O[C@@](C)([C@@H]1OC)n1c3ccccc3c3c4c(c5c6ccccc6n2c5c31)C(=O)NC4 [staurosporine]
Description: log2 fold change of tryptic peptide abundance, ligand vs vehicle (limited proteolysis) (log2 ratio); higher = more trypsin-susceptible (destabilized). To be noted: ligand concentration: 20 uM; sample: K562 cleared lysate; digestion: 4 min, 22 C (HT-PELSA RT4min, Orbitrap Astral).
Regarding “CETN2 (peptide sequence: MNFGDFLTVMTQK, peptide start residue: 84) (UniProt P41208)”, the log2 fold change came out at 0.151. As for “UniProt P28290 (peptide sequence: SSALMGMCGSR, peptide start residue: 1044)”, the figure is 0.382; as for “MCM5 (peptide sequence: RLAALPNVYEVISK, peptide start residue: 324) (UniProt P33992)”, 0.239; as for “ETV4 (peptide sequence: LIEPEEVAR, peptide start residue: 365) (UniProt P43268)”, -0.195. As for “ETV3 (peptide sequence: KTELSELEDGSAADWRR, peptide start residue: 188) (UniProt P41162)”, the figure is -0.496; as for “MAGEA1 (peptide sequence: FFFPSLR, peptide start residue: 292) (UniProt P43355)”, 0.106. As for “UniProt P35030 (peptide sequence: DTLDNDIMLIK, peptide start residue: 159)”, the figure is -0.0647; as for “ID1 (peptide sequence: TASGAGEVVR, peptide start residue: 24) (UniProt P41134)”, -0.151. Take “PBX2 (peptide sequence: TAVSVTQGGHSR, peptide start residue: 320) (UniProt P40425)”: the log2 fold change was found to be 0.194. Next, “COL18A1 (peptide sequence: EETGAALKPR, peptide start residue: 679) (UniProt P39060)”: 0.0952; “RANBP1 (peptide sequence: TLEEDEEELFKMRAK, peptide start residue: 40) (UniProt P43487)”: 1.25.

The record behind these values is the supplement of paper PMC12819154, “High-throughput peptide-centric local stability assay extends protein–ligand identification to membrane proteins, tissues and bacteria” (Nature Structural & Molecular Biology, 2025).
